Measurements: article PMC7915802
These are yes or no findings as the source states them, for the method shown. Binding seen in cells or lysates may run through a third protein. Some binding calls cover weakened binding; strength is not graded here.

The chains behind the UniProt entries cited, without tags or fusion partners.
UniProt Q9C0C7: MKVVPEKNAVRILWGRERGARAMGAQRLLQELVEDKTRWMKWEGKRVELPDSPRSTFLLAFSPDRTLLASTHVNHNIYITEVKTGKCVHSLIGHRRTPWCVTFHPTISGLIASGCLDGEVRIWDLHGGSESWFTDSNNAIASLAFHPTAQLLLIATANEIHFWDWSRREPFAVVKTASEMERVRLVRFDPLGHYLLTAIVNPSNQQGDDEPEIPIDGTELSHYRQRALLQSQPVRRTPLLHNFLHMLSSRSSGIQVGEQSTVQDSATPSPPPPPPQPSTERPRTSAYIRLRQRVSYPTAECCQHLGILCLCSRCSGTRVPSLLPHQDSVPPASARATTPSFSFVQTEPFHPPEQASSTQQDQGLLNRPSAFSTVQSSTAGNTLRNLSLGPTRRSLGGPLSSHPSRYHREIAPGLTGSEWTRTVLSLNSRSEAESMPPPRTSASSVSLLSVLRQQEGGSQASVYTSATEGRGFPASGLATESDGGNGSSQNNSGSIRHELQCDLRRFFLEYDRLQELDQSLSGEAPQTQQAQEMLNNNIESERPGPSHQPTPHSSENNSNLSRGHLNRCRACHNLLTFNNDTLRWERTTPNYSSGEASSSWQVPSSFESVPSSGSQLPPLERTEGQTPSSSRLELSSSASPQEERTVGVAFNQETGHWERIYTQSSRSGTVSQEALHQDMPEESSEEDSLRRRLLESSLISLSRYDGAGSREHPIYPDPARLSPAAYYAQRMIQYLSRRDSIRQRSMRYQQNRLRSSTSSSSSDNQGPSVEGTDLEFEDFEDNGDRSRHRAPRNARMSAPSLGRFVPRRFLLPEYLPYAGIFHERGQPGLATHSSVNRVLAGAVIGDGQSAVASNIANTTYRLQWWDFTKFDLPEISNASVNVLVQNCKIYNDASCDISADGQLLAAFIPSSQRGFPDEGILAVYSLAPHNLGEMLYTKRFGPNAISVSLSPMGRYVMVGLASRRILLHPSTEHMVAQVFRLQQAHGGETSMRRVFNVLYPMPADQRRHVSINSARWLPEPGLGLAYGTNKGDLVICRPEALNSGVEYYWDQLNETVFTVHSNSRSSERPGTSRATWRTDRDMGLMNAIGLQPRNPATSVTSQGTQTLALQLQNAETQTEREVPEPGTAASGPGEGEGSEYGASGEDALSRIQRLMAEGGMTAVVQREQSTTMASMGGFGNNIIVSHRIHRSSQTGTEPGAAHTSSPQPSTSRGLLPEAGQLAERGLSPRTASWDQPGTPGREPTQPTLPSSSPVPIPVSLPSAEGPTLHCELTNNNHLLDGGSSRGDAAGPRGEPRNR

Legend:
[1] = target: AMBRA1 (human (endogenous in 2FTGH fibroblasts and SK-N-BE2 cells)) (UniProt Q9C0C7); assay: co-IP; human 2FTGH fibroblasts, untreated or treated with HBSS 1 h at 37 °C; lysis in 10 mM Tris-HCl pH 8.0, 150 mM NaCl, 1% Nonidet P-40; immunoprecipitation with rabbit anti-AMBRA1 PAb and protein G-acrylic beads at 4 °C; Western blot of the immunoprecipitates
[2] = target: AMBRA1 (human (endogenous in 2FTGH fibroblasts and SK-N-BE2 cells)) (UniProt Q9C0C7); assay: co-IP; SK-N-BE2 (SKNB-E-2) neuroblastoma cells, untreated or treated with HBSS 1 h; lysis in 10 mM Tris-HCl pH 8.0, 150 mM NaCl, 1% Nonidet P-40; immunoprecipitation with rabbit anti-AMBRA1 PAb and protein G-acrylic beads at 4 °C; Western blot of the immunoprecipitates

binding [1]: binds
binding [2]: binds
B1: WIPI1 (protein, UniProt Q5MNZ9 1-446)
chain: MEAEAADAPPGGVESALSCFSFNQDCTSLATGTKAGYKLFSLSSVEQLDQVHGSNEIPDVYIVERLFSSSLVVVVSHTKPRQMNVYHFKKGTEICNYSYSSNILSIRLNRQRLLVCLEESIYIHNIKDMKLLKTLLDIPANPTGLCALSINHSNSYLAYPGSLTSGEIVLYDGNSLKTVCTIAAHEGTLAAITFNASGSKLASASEKGTVIRVFSVPDGQKLYEFRRGMKRYVTISSLVFSMDSQFLCASSNTETVHIFKLEQVTNSRPEEPSTWSGYMGKMFMAATNYLPTQVSDMMHQDRAFATARLNFSGQRNICTLSTIQKLPRLLVASSSGHLYMYNLDPQDGGECVLIKTHSLLGSGTTEENKENDLRPSLPQSYAATVARPSASSASTVPGYSEDGGALRGEVIPEHEFATGPVCLDDENEFPPIILCRGNQKGKTKQS
